# Measured values reported in the supplement of paper PMC12067093, “Discovery and optimisation of a covalent ligand for TRIM25 and its application to targeted protein ubiquitination” (Chemical Science, 2025).
# The other results are listed elsewhere or left out.
# Compound: Cc1cc(ccc1-c1ccccc1)C(=O)N1CCCN(CC1)C(=O)CCl [compound 10]
# Experiment: probe-labelled cysteine peptide fold change vs DMSO (competition) (log2 fold change); higher = less target engagement (more negative = stronger competition)
# Settings: 10 µM; THP-1; incubation time: 4 h
# 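Note: competitive profiling in live THP-1 cells: cysteine peptides tagged with an iodoacetamide desthiobiotin (IA-DTB) probe, intensity after compound treatment relative to DMSO-treated cells.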
row,Target,probe-labelled cysteine peptide fold change
1,NUP50_Q9UKX7_181_HVNTNPLCDLTPIFK (UniProt Q9UKX7),0.0644
2,OGT_O15294_323_LCPTHADSLNNLANIK (UniProt O15294),0.106
3,NUP160_Q12769_292+303_GDQSPSDRPLSLAVHCVEHDAFIFALCQDHK (UniProt Q12769),0.075
4,OCRL_Q01968_679_DYFLTISGNYLPSCFGTSLEALCR (UniProt Q01968),0.343
5,NVL_O15381_785_CDCYTGADLSALVR (UniProt O15381),-0.127
6,OGT_O15294_44_HCMQLWR (UniProt O15294),0.214
7,OLA1_Q9NTK5_187_LKPEYDIMCK (UniProt Q9NTK5),-0.186
8,NUSAP1_Q9BXS6_64_KGNENQDESQTSASSCDETEIQISNQEEAERQPLGHVTK (UniProt Q9BXS6),-0.424
9,NXF1_Q9UBU9_328_LEELWLDGNSLCDTFR (UniProt Q9UBU9),0.246
10,NUBP2_Q9Y5Y2_196_VMGIVENMSGFTCPHCTECTSVFSR (UniProt Q9Y5Y2),0.0618
11,NUP210_Q8TEM1_1611_EVIQALHPETLISCQSQFK (UniProt Q8TEM1),-0.0849
12,NUMA1_Q14980_1367_HLCQQLQAEQAAAEKR (UniProt Q14980),-0.138
13,NUMA1_Q14980_2009_ATSCFPR (UniProt Q14980),-0.121
14,NUMA1_Q14980_961_QFCSTQAALQAMER (UniProt Q14980),-0.0783
15,NUP160_Q12769_931_ALECFCQAASEVGKEEFLDR (UniProt Q12769),0.0971
16,NUDCD1_Q96RS6_402+410+421_EKPPCNAQELEECDIFFEESSSLCR (UniProt Q96RS6),-0.098
17,NUP43_Q8NFH3_222_QQGNEPSQILSLTGDRVPLHCVDRHPNQQHVVATGGQDGMLSIWDVR (UniProt Q8NFH3),-0.0632
18,NUP54_Q7Z3B4_171_GYFNNNIPPVEFTQENPFCR (UniProt Q7Z3B4),-0.213
19,NUDT21_O43809_144_QDGVLQDWVIDDCIGNWWR (UniProt O43809),0.404
20,NUDT18_Q6ZVK8_100_EEAGLHCEPETLLSVEER (UniProt Q6ZVK8),-0.257

row,Target,probe-labelled cysteine peptide fold change
1,OGDH_Q02218_283_FGLEGCEVLIPALK (UniProt Q02218),0.0342
2,NUS1_Q96E22_164_QQQELLGLDCSK (UniProt Q96E22),0.192
3,NUP93_Q8N1F7_209_IVNGHLQPNLVDLCASVAELDDK (UniProt Q8N1F7),0.0846
4,NUP93_Q8N1F7_328_CGDLLAASQVVNR (UniProt Q8N1F7),-0.0388
5,NUP43_Q8NFH3_222_VPLHCVDRHPNQQHVVATGGQDGMLSIWDVR (UniProt Q8NFH3),0.221
6,OGDH_Q02218_331_ELEQIFCQFDSK (UniProt Q02218),0.0516
7,NUP160_Q12769_318_EQMCLMVADMLEYVPVKK (UniProt Q12769),0.242
8,OCIAD2_Q56VL3_130_HCLLTCEECK (UniProt Q56VL3),-0.0517
9,NUDCD1_Q96RS6_32_LSLEPLPCYQLELDAAVAEVK (UniProt Q96RS6),-0.0441
10,OGT_O15294_68_QEPDNTGVLLLLSSIHFQCR (UniProt O15294),0.327
11,OGG1_O15527_140_LLRQDPIECLFSFICSSNNNIAR (UniProt O15527),0.0334
12,NUP188_Q5SRE5_95_FLGLDEEQSVQLLQCYLQEDYR (UniProt Q5SRE5),0.0307
13,NUP155_O75694_551_LHQEDQACATCLILACSTAACDREVSAWATR (UniProt O75694),0.0968
14,NUP62_P37198_475_DIIEHLNTSGAPADTSDPLQQICK (UniProt P37198),-0.0257
15,NUP98_P52948_1312_WLSCTATPQIEEEVSLTQK (UniProt P52948),-0.0219
16,NUMA1_Q14980_803_ELAEAMAAQHTAESECEQLVK (UniProt Q14980),0.212
17,OGA_O60502_596_ANSSVVSVNCK (UniProt O60502),-0.215
18,NUP85_Q9BW27_51_SEMVPSCPFIYIIR (UniProt Q9BW27),0.108
19,NUP160_Q12769_303_GDQSPSDRPLSLAVHCVEHDAFIFALCQDHK (UniProt Q12769),0.131
20,NUDT12_Q9BQG2_18_QEIVTQFHCSAAEGDIAK (UniProt Q9BQG2),-0.164

# Same assay, conditions: 50 µM; THP-1; incubation time: 4 h
row,Target,probe-labelled cysteine peptide fold change
1,NUP50_Q9UKX7_181_HVNTNPLCDLTPIFK (UniProt Q9UKX7),0.119
2,OGT_O15294_323_LCPTHADSLNNLANIK (UniProt O15294),0.0207
3,NUP160_Q12769_292+303_GDQSPSDRPLSLAVHCVEHDAFIFALCQDHK (UniProt Q12769),0.189
4,OCRL_Q01968_679_DYFLTISGNYLPSCFGTSLEALCR (UniProt Q01968),0.571
5,NVL_O15381_785_CDCYTGADLSALVR (UniProt O15381),-0.0558
6,OGT_O15294_44_HCMQLWR (UniProt O15294),0.192
7,OLA1_Q9NTK5_187_LKPEYDIMCK (UniProt Q9NTK5),-0.101
8,NUSAP1_Q9BXS6_64_KGNENQDESQTSASSCDETEIQISNQEEAERQPLGHVTK (UniProt Q9BXS6),-0.158
9,NXF1_Q9UBU9_328_LEELWLDGNSLCDTFR (UniProt Q9UBU9),0.303
10,NUBP2_Q9Y5Y2_196_VMGIVENMSGFTCPHCTECTSVFSR (UniProt Q9Y5Y2),-0.172
11,NUP210_Q8TEM1_1611_EVIQALHPETLISCQSQFK (UniProt Q8TEM1),0.506
12,NUMA1_Q14980_1367_HLCQQLQAEQAAAEKR (UniProt Q14980),-0.287
13,NUMA1_Q14980_2009_ATSCFPR (UniProt Q14980),-0.187
14,NUMA1_Q14980_961_QFCSTQAALQAMER (UniProt Q14980),-1.25
15,NUP160_Q12769_931_ALECFCQAASEVGKEEFLDR (UniProt Q12769),0.0576
16,NUDCD1_Q96RS6_402+410+421_EKPPCNAQELEECDIFFEESSSLCR (UniProt Q96RS6),-0.407
17,NUP43_Q8NFH3_222_QQGNEPSQILSLTGDRVPLHCVDRHPNQQHVVATGGQDGMLSIWDVR (UniProt Q8NFH3),-0.223
18,NUP54_Q7Z3B4_171_GYFNNNIPPVEFTQENPFCR (UniProt Q7Z3B4),-0.013
19,NUDT21_O43809_144_QDGVLQDWVIDDCIGNWWR (UniProt O43809),0.914
20,NUDT18_Q6ZVK8_100_EEAGLHCEPETLLSVEER (UniProt Q6ZVK8),0.151

row,Target,probe-labelled cysteine peptide fold change
1,OGDH_Q02218_283_FGLEGCEVLIPALK (UniProt Q02218),0.0883
2,NUS1_Q96E22_164_QQQELLGLDCSK (UniProt Q96E22),-0.0667
3,NUP93_Q8N1F7_209_IVNGHLQPNLVDLCASVAELDDK (UniProt Q8N1F7),0.117
4,NUP93_Q8N1F7_328_CGDLLAASQVVNR (UniProt Q8N1F7),0.214
5,NUP43_Q8NFH3_222_VPLHCVDRHPNQQHVVATGGQDGMLSIWDVR (UniProt Q8NFH3),-0.351
6,OGDH_Q02218_331_ELEQIFCQFDSK (UniProt Q02218),0.333
7,NUP160_Q12769_318_EQMCLMVADMLEYVPVKK (UniProt Q12769),0.224
8,OCIAD2_Q56VL3_130_HCLLTCEECK (UniProt Q56VL3),-0.25
9,NUDCD1_Q96RS6_32_LSLEPLPCYQLELDAAVAEVK (UniProt Q96RS6),0.242
10,OGT_O15294_68_QEPDNTGVLLLLSSIHFQCR (UniProt O15294),0.681
11,OGG1_O15527_140_LLRQDPIECLFSFICSSNNNIAR (UniProt O15527),-0.114
12,NUP188_Q5SRE5_95_FLGLDEEQSVQLLQCYLQEDYR (UniProt Q5SRE5),0.285
13,NUP155_O75694_551_LHQEDQACATCLILACSTAACDREVSAWATR (UniProt O75694),0.148
14,NUP62_P37198_475_DIIEHLNTSGAPADTSDPLQQICK (UniProt P37198),0.0173
15,NUP98_P52948_1312_WLSCTATPQIEEEVSLTQK (UniProt P52948),-0.737
16,NUMA1_Q14980_803_ELAEAMAAQHTAESECEQLVK (UniProt Q14980),0.247
17,OGA_O60502_596_ANSSVVSVNCK (UniProt O60502),-0.408
18,NUP85_Q9BW27_51_SEMVPSCPFIYIIR (UniProt Q9BW27),-0.0898
19,NUP160_Q12769_303_GDQSPSDRPLSLAVHCVEHDAFIFALCQDHK (UniProt Q12769),0.191
20,NUDT12_Q9BQG2_18_QEIVTQFHCSAAEGDIAK (UniProt Q9BQG2),-0.409
